Measurements published in article PMC6235520 (Science Advances, 2018).

Biological target: human KCNQ1 (Homo sapiens, UniProt P51787)
Assay: Two-electrode voltage clamp of KCNQ1 expressed in Xenopus laevis oocytes
Type: cell-based

CC(C)CC(=O)O [isovaleric acid]
sensitivity of KCNQ1 to compound: insensitive
